Results on 40 compounds are retold here after the supplement of paper PMC8426693.

Some of the results follow.

One test has as its system SARS-CoV-2 5_SL7 RNA. Briefly: NMR binding call after quantification (hit when 2 of 3 NMR criteria are met) (binary (1 = binding, 0 = not binding)); higher = binding. As to conditions: RNA concentration 10 µM; fragment concentration 200 µM; 293 K.
In the case of `CC(C)NC(=O)N(C)Cc1cnn(C)c1`, the NMR binding call worked out at 0.
The same measure, in the same setting: in the case of `Cc1nc(C)n(CCC(=O)O)n1` it was 0.
Still for that read-out and setting: in the case of `CN(C)c1ccc(CNn2cnnc2)cc1` it was 0.
`COc1ccc(CN)cc1OC` came in with an NMR binding call of 0.
The same measure, in the same setting: in the case of `CC1CCN(CCN)CC1` it was 0; in that of `c1ccc(Nc2nncs2)cc1`, 0.
Compound `COc1cccc2[nH]ccc12` registered an NMR binding call of 0.
Regarding `Cc1ncc(CNc2cncc(F)c2)s1`, the NMR binding call was 0.
`CC(=O)N1CCN(CCCc2ccccc2)CC1`: the NMR binding call is 0.
Same read-out and setting: in the case of `CCc1nnc(NC(=O)c2cnccn2)s1` it was 0; in that of `COCC(=O)Nc1nnc(C)s1`, 0; in that of `CN1CCCC(OC(=O)c2ccco2)C1` (stereo not given), 0.
The compound `CS(=O)(=O)N1CCCC1CN` (stereo not given) displayed an NMR binding call of 0.
The compound `Cc1ccc(CNC(=O)Cc2cccs2)cc1` came in with an NMR binding call of 0.
Compound `CCc1ccc(C(=O)NCc2cnn(C)c2)s1` had an NMR binding call of 0.
`COc1cc(C(=O)O)cc(OC)c1OC`: the NMR binding call is 0.
On the same count and under the same terms, in the case of `O=C(NCCc1ccccc1)NC1CCCCC1` it was 0; in that of `Cc1nsc(N2CCCNCC2)n1`, 0; in that of `Cc1nnc(N2CCCCC2)s1`, 0.
Still for that read-out and setting: in the case of `Cc1nn(C)c(C)c1CN1CCNCC1` it was 0; in that of `N#CCC(=O)N1CCC(Cc2ccccc2)CC1`, 0.
As for `Cc1cccc(Nc2ncnc3c2cnn3C)c1`, the NMR binding call was found to be 0.
On the same count and under the same terms, in the case of `Cc1ccccc1OCC(=O)Nc1ncccn1` it was 0.
As for `Cc1ncsc1C(=O)N1CCCNCC1.Cl.Cl`, the NMR binding call came to 0.
Same read-out and setting: in the case of `Cc1nsc(N2CCOC(C)C2C)n1` (stereo not given) it was 0; in that of `O=C(Nc1ccc(N2CCOCC2)cc1)C1CC1`, 0; in that of `CC(=O)Nc1ccc(CC(N)=O)cc1`, 0.
The same measure, in the same setting: in the case of `CS(=O)(=O)Nc1ccc(CN)cc1.Cl` it was 0.
Compound `CCOC(=O)c1cc(-c2ccc(C)cc2)no1` yielded an NMR binding call of 0.
The same measure, in the same setting: in the case of `NC(=O)c1cc(N2CCCC2)ccn1` it was 1.
As to `O=C(Cc1ccccc1)N1CCc2ccccc21`, the NMR binding call is 0.
Still for that read-out and setting: in the case of `CS(=O)(=O)CC(O)c1ccccc1` (stereo not given) it was 0.
Same read-out and setting: in the case of `CNc1nccnc1C#N` it was 0.
In turn, `COc1ccc(C(=O)Nc2ccccc2F)cc1` returned an NMR binding call of 0.
Compound `Clc1snnc1CN1CCOCC1` returned an NMR binding call of 0.
The compound `CCC(=O)Nc1ccc(S(N)(=O)=O)cc1` registered an NMR binding call of 0.
In turn, `N#CCN1CCN(c2cccc(Cl)c2)CC1` gave an NMR binding call of 0.
The compound `Cc1cc2ncn(CC(N)=O)c2cc1C` returned an NMR binding call of 0.
The same measure, in the same setting: in the case of `CC(=O)NC(C)c1nnc2ccccn12` (stereo not given) it was 0.
With `CC(=O)N1CCOC(CO)C1` (stereo not given), the NMR binding call was 0.

For another test, the system named is SARS-CoV-2 5_SL8 RNA. The test is described as above. As to conditions: RNA concentration 10 µM; fragment concentration 200 µM; 293 K.
Turning to `CC(C)NC(=O)N(C)Cc1cnn(C)c1`, the NMR binding call came to 0.
Still for that read-out and setting: in the case of `Cc1nc(C)n(CCC(=O)O)n1` it was 0; in that of `CN(C)c1ccc(CNn2cnnc2)cc1`, 0.
On the same count and under the same terms, in the case of `COc1ccc(CN)cc1OC` it was 0; in that of `CC1CCN(CCN)CC1`, 0.
On the same count and under the same terms, in the case of `c1ccc(Nc2nncs2)cc1` it was 0; in that of `COc1cccc2[nH]ccc12`, 0; in that of `Cc1ncc(CNc2cncc(F)c2)s1`, 0.
The compound `CC(=O)N1CCN(CCCc2ccccc2)CC1` had an NMR binding call of 0.
`CCc1nnc(NC(=O)c2cnccn2)s1` yielded an NMR binding call of 0.
On the same count and under the same terms, in the case of `COCC(=O)Nc1nnc(C)s1` it was 0; in that of `CN1CCCC(OC(=O)c2ccco2)C1` (stereo not given), 0.
The same measure, in the same setting: in the case of `CS(=O)(=O)N1CCCC1CN` (stereo not given) it was 0; in that of `Cc1ccc(CNC(=O)Cc2cccs2)cc1`, 0.
Regarding `CCc1ccc(C(=O)NCc2cnn(C)c2)s1`, the NMR binding call came out at 0.
In turn, `COc1cc(C(=O)O)cc(OC)c1OC` gave an NMR binding call of 0.
The same measure, in the same setting: in the case of `O=C(NCCc1ccccc1)NC1CCCCC1` it was 0; in that of `Cc1nsc(N2CCCNCC2)n1`, 0; in that of `Cc1nnc(N2CCCCC2)s1`, 0.
On the same count and under the same terms, in the case of `Cc1nn(C)c(C)c1CN1CCNCC1` it was 0; in that of `N#CCC(=O)N1CCC(Cc2ccccc2)CC1`, 0.
Still for that read-out and setting: in the case of `Cc1cccc(Nc2ncnc3c2cnn3C)c1` it was 0; in that of `Cc1ccccc1OCC(=O)Nc1ncccn1`, 0.
In turn, `Cc1ncsc1C(=O)N1CCCNCC1.Cl.Cl` yielded an NMR binding call of 0.
On the same count and under the same terms, in the case of `Cc1nsc(N2CCOC(C)C2C)n1` (stereo not given) it was 0; in that of `O=C(Nc1ccc(N2CCOCC2)cc1)C1CC1`, 0; in that of `CC(=O)Nc1ccc(CC(N)=O)cc1`, 0.
Same read-out and setting: in the case of `CS(=O)(=O)Nc1ccc(CN)cc1.Cl` it was 0.
For the compound `CCOC(=O)c1cc(-c2ccc(C)cc2)no1`, the NMR binding call is 0.
`NC(=O)c1cc(N2CCCC2)ccn1`: the NMR binding call was found to be 0.
`O=C(Cc1ccccc1)N1CCc2ccccc21`: the NMR binding call came to 0.
`CS(=O)(=O)CC(O)c1ccccc1` (stereo not given): the NMR binding call was found to be 0.
Same read-out and setting: in the case of `CNc1nccnc1C#N` it was 0; in that of `COc1ccc(C(=O)Nc2ccccc2F)cc1`, 0; in that of `Clc1snnc1CN1CCOCC1`, 0.
Turning to `CCC(=O)Nc1ccc(S(N)(=O)=O)cc1`, the NMR binding call stood at 0.
Same read-out and setting: in the case of `N#CCN1CCN(c2cccc(Cl)c2)CC1` it was 0; in that of `Cc1cc2ncn(CC(N)=O)c2cc1C`, 0.
Still for that read-out and setting: in the case of `CC(=O)NC(C)c1nnc2ccccn12` (stereo not given) it was 0.
On to `CC(=O)N1CCOC(CO)C1` (stereo not given), for which the NMR binding call stood at 0.
